In patent US20050123936A1 (priority 2003, published 2005):

Assay: general procedure: peptide synthesis; SASRIN resin (1.08 mmol eq/g) for peptide acids; Boc-Ala-PAM resin (0.59 mmol/g) for polyamide; HBTU/DIEA
Conditions: conjugation step

Row | Substance | conjugation yield (on polyamide 1 (2.67 umol)) [%] | conjugation yield (on polyamide 1 (2.8 umol)) [%]
1 | 2 (R=Ac-Phe-Tyr-Pro-Trp-Met-Lys-Gly-) (FYPWMKG) | 62 | 
2 | 3 (R=Ac-Phe-Tyr-Pro-Ala-Ala-Lys-Gly-) (FYPAAKG) |  | 26
